Results are given in words; binding and its absence hold for the method and conditions named. Binding seen in cells or lysates may run through a third protein. Some binding calls cover weakened binding; strength is not graded here. Where a sequence is shown, tags or fusion partners need not be part of it.
T1: Drosophila PARIS (dPARIS), C-terminal V5-tagged (Drosophila) (UniProt Q9VR05)
T1 sequence: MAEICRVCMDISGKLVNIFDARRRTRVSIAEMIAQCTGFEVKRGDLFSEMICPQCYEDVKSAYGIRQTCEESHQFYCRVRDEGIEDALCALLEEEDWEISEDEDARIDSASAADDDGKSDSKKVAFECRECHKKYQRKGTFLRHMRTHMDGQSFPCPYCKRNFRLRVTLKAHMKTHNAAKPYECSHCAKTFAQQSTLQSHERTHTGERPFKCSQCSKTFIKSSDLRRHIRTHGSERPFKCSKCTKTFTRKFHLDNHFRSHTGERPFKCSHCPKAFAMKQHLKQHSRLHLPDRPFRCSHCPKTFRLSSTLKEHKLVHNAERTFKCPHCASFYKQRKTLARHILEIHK

T2: Drosophila parkin (dparkin), N-terminal FLAG tagged (Drosophila) (UniProt Q7KTX7)
T2 sequence: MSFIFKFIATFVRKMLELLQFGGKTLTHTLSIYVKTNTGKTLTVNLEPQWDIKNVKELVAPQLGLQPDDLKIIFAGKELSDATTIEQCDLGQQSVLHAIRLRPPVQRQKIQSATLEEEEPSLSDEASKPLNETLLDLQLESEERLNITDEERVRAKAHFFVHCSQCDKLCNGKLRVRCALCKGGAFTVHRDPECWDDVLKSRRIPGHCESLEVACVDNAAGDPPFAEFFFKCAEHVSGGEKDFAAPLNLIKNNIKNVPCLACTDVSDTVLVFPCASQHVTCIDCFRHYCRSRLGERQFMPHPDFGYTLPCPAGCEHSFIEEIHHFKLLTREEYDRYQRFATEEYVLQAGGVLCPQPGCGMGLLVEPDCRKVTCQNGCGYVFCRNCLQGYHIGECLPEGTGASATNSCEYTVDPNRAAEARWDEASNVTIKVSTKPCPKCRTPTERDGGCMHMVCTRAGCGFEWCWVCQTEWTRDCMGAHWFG


Assays:
[1] = target: T1, Drosophila PARIS (dPARIS), C-terminal V5-tagged (Drosophila); assay: co-IP; reciprocal: lysates of transfected Drosophila S2 cells (S2 lysis buffer: 50 mM Tris pH 7.5, 150 mM NaCl, 5 mM EDTA, 1% NP-40); overnight incubation with anti-V5-tag mAb magnetic beads, three washes; blot for parkin
[2] = target: T2, Drosophila parkin (dparkin), N-terminal FLAG tagged (Drosophila); assay: co-IP; lysates of transfected Drosophila S2 cells (S2 lysis buffer: 50 mM Tris pH 7.5, 150 mM NaCl, 5 mM EDTA, 1% NP-40); overnight incubation with anti-FLAG M2 magnetic beads, three washes; blot for V5

binding [1] | binding [2] | Binder
binds |  | Drosophila parkin (dparkin), N-terminal FLAG tagged (protein, UniProt Q7KTX7 1-482) MSFIFKFIATFVRKMLELLQFGGKTLTHTLSIYVKTNTGKTLTVNLEPQWDIKNVKELVAPQLGLQPDDLKIIFAGKELSDATTIEQCDLGQQSVLHAIRLRPPVQRQKIQSATLEEEEPSLSDEASKPLNETLLDLQLESEERLNITDEERVRAKAHFFVHCSQCDKLCNGKLRVRCALCKGGAFTVHRDPECWDDVLKSRRIPGHCESLEVACVDNAAGDPPFAEFFFKCAEHVSGGEKDFAAPLNLIKNNIKNVPCLACTDVSDTVLVFPCASQHVTCIDCFRHYCRSRLGERQFMPHPDFGYTLPCPAGCEHSFIEEIHHFKLLTREEYDRYQRFATEEYVLQAGGVLCPQPGCGMGLLVEPDCRKVTCQNGCGYVFCRNCLQGYHIGECLPEGTGASATNSCEYTVDPNRAAEARWDEASNVTIKVSTKPCPKCRTPTERDGGCMHMVCTRAGCGFEWCWVCQTEWTRDCMGAHWFG
 | binds | Drosophila PARIS (dPARIS), C-terminal V5-tagged (protein, UniProt Q9VR05 1-346) MAEICRVCMDISGKLVNIFDARRRTRVSIAEMIAQCTGFEVKRGDLFSEMICPQCYEDVKSAYGIRQTCEESHQFYCRVRDEGIEDALCALLEEEDWEISEDEDARIDSASAADDDGKSDSKKVAFECRECHKKYQRKGTFLRHMRTHMDGQSFPCPYCKRNFRLRVTLKAHMKTHNAAKPYECSHCAKTFAQQSTLQSHERTHTGERPFKCSQCSKTFIKSSDLRRHIRTHGSERPFKCSKCTKTFTRKFHLDNHFRSHTGERPFKCSHCPKAFAMKQHLKQHSRLHLPDRPFRCSHCPKTFRLSSTLKEHKLVHNAERTFKCPHCASFYKQRKTLARHILEIHK

From paper PMC7057660
